# According to patent US7094543B2, “Methods for detecting rare polymorphic variants in genomic DNA sequences” (Massachusetts Institute of Technology, priority 2000, dated 2006):
# System: 121 bp APC target sequence
# Test: Pfu-PCR noise / polymerase error rate
# Format: biochemical, human
molecule,measurement,setting,value
"Pfu DNA polymerase: native Pyrococcus furiosus (Pfu) DNA polymerase with an associated 3′−>5′ exonuclease activity (Stratagene) (protein, UniProt P61875 1-775, looked up) DNA polymerase: MILDVDYITEEGKPVIRLFKKENGKFKIEHDRTFRPYIYALLRDDSKIEEVKKITGERHGKIVRIVDVEKVEKKFLGKPITVWKLYLEHPQDVPTIREKVREHPAVVDIFEYDIPFAKRYLIDKGLIPMEGEEELKILAFDIETLYHEGEEFGKGPIIMISYADENEAKVITWKNIDLPYVEVVSSEREMIKRFLRIIREKDPDIIVTYNGDSFDFPYLAKRAEKLGIKLTIGRDGSEPKMQRIGDMTAVEVKGRIHFDLYHVITRTINLPTYTLEAVYEAIFGKPKEKVYADEIAKAWESGENLERVAKYSMEDAKATYELGKEFLPMEIQLSRLVGQPLWDVSRSSTGNLVEWFLLRKAYERNEVAPNKPSEEEYQRRLRESYTGGFVKEPEKGLWENIVYLDFRALYPSIIITHNVSPDTLNLEGCKNYDIAPQVGHKFCKDIPGFIPSLLGHLLEERQKIKTKMKETQDPIEKILLDYRQKAIKLLANSFYGYYGYAKARWYCKECAESVTAWGRKYIELVWKELEEKFGFKVLYIDTDGLYATIPGGESEEIKKKALEFVKYINSKLPGLLELEYEGFYKRGFFVTKKRYAVIDEEGKVITRGLEIVRRDWSEIAKETQARVLETILKHGDVEEAVRIVKEVIQKLANYEIPPEKLAIYEQITRPLHEYKAIGPHVAVAKKLAAKGVKIKPGMVIGYIVLRGDGPISNRAILAEEYDPKKHKYDAEYYIENQVLPAVLRILEGFGYRKEDLRYQKTRQVGLTSWLNIKKS",Pfu DNA polymerase error rate,"121 bp APC target sequence, 21 doublings",1.8×10^−6 mutations per bp per doubling
same,"mutant fraction of each of fourteen polymerase-created GC->TA transversions, equivalent in the original samples",APC target sequence,around 10^−6
